Publication doi:10.1101/2025.03.13.643145 (bioRxiv, 2025)
These are yes or no findings as the source states them, for the method shown. Some results given as binding are weak or reduced against the parent protein; the word gives no strength. Sequences can lack the tags named with a protein.

Biological target: T1, secreted phospholipase A2 type IIA (UniProt P14555)
T1 sequence: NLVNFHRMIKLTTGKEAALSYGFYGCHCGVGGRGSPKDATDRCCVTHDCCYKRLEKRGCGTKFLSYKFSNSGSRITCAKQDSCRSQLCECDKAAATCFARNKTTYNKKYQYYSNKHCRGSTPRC
Test: ELISA

B1: disulfide-linked cyclic site 2 peptide of integrin β3 (GST fusion protein) (peptide)
peptide: CRLAGIVQPNDGQSHVGSDNHYSASTTMC
modifications: disulfide linkage between C260 and C288 (cyclic)
B1 was tested, and the binding was “binds”.
